For part of these data: At least one structure is not confirmed: it was looked up by name or label, or the drawing left a doubt. Some entries share one result that the patent states for a list of compounds.
Columns and labels:
[1] = test system: wild type tet Receptor and TripleX-driven GUS gene (pAC489/pAC499 double transformants); assay: Seed germination test: induction of GUS gene in seedlings; type: in vivo, tobacco; conditions: two-week-old seedlings, FIG. 18
[2] = test system: Arabidopsis plants transformed with pACAG029 (TripleX/AHAS, (OCS)3MAS/nTR and NPTII cassettes); assay: tet-inducible herbicide resistance in transgenic Arabidopsis; type: in vivo
tobacco line pACAG029#4 = type: in vivo; conditions: 310 and 620 g/ha, premixed with PURSUIT
Excerpt: FIG. 36—tet-Inducible Herbicide Resistance: Spray Test of F1 Seedlings and Seeds of Tobacco Line pACAG029#4. Seedlings at different stages of development (1 and 2 weeks old), produced by germination in 2.5″×2.5″ pots with Metro mix, were used for assessing tet inducible herbicide resistance in a post-emergence test. For pre-emergency application, seeds were sown on the Metro mix right before PURSUIT®, application. 15-20 seeds were placed in each pot. Pots were sprayed with doxycycline premixed with PURSUIT®, each at different rates. The test was evaluated two weeks after the spray. Each pot in the figure represents a unique experiment in terms of the combination of chemical rates and the stage of seedling development. As shown in the figure, the rate of herbicide resistance directly corresponded with increased doxycycline application rates.
Induction of herbicide resistance in plants growing in soil has been investigated. Transgenic F1 heterozygous tobacco seeds of the line pACAG029#4 (this line has been shown elsewhere herein to provide the best repression/induction in tissue culture tests) ere used for the spray test. Seedlings at different stages of development (1 and 2 weeks old) produced by germination of seeds in 2.5″×2.5″ pots with Metro mix were used for post-emergence test. For pre-emergency application, seeds were sown on the Metro mix right before the application of herbicide. […]

[3] = test system: tobacco transformed with tet-inducible AHAS gene (pACAG029); assay: tet-inducible herbicide resistance in transgenic tobacco (in vitro tests); type: in vivo
[4] = test system: pAC499 (TripleX/GUS) with pACAG084 ((OCS)3MAS/nTR) or pACAG049 (MAR-(OCS)3MAS/nTR); assay: Time series of GUS induction in whole rooted plants; type: in vivo, tobacco
Method: FIG. 16—Induction of GUS Gene in Double Transformants: Time Series. Time series were run with the best double transformants carrying pAC499 (TripleX/GUS) and either of pACAG084 ((OCS)3MAS/nTR) or pACAG049 (MAR-(OCS)3MAS/nTR). Three weeks-old rooted plants were transferred from agar to magenta boxes with liquid medium and tetracycline 2 mg/l. Tissue samples were regularly taken from roots and assayed for GUS.
Time series were run with the best double transformants carrying pAC499 (TripleX/GUS) and either of pACAG084 ((OCS)3MAS/nTR) or pACAG049 (MAR-(OCS)3MAS/nTR). Three week-old rooted plants were transferred from agar to magenta boxes with liquid medium and tetracycline 2 mg/l. Tissue samples were regularly taken from leaves and roots and assayed for GUS. […] The latter result was consistently observed, as well as, in experiments from the literature.

| SMILES | magnitude of induction of GUS [1] | resistance to PURSUIT of T1 heterozygous and T2 homozygous seeds ([2]; 5 μM PURSUIT with doxycycline 5 mg/l, FIG. 28) | induction of herbicide resistance in spray test (tobacco line pACAG029#4) | induction of herbicide resistance in T1 heterozygous and T2 homozygous seeds ([3]; 5 μM PURSUIT with doxycycline 5 mg/l, FIG. 23) | root inhibition of T1 seedlings ([3]; line #4, PURSUIT 1 μM and Doxycycline 3 mg/l, FIG. 22) | induction of regeneration of shoots from leaf disks ([3]; lines transformed with pACAG119, 119r, 120, 120r, 5 μM PURSUIT, 1 mg/l BAP, doxycycline 5 mg/l, FIG. 25) | lines showing induction of herbicide resistance, seed germination ([2]; PURSUIT 1 μM and tetracycline at 2 mg/l, FIG. 27) | lines showing induction of PURSUIT resistance, single leaf in liquid medium ([2]; fifteen plants, tet 2 mg/l + PURSUIT 1 μM, FIG. 26) | lines showing induction of PURSUIT resistance on rooting medium ([3]; 17 Kanamycin-resistant lines, tet 2 mg/l + PURSUIT 1 μM, FIG. 21) | regeneration of herbicide-resistant shoots ([3]; leaf disks infected with Agro pACAG029, tetracycline 2 mg/l and PURSUIT 1 μM, FIG. 20) | induction of reporter in leaves ([4]; leaves, tetracycline 2 mg/l) | time before expression reached its peak ([4]; roots, tetracycline 2 mg/l) | duration of derepression after the ligand is removed ([4]; whole plant level) | time after application at which derepression of reporter gene reached its maximum ([4]; whole plant level) |
| --- | --- | --- | --- | --- | --- | --- | --- | --- | --- | --- | --- | --- | --- | --- |
| CN(C)[C@@H]1C(O)=C(C(N)=O)C(=O)[C@@]2(O)C(O)=C3C(=O)c4c(O)ccc(Cl)c4[C@@H](O)[C@H]3C[C@@H]12 [64-73-3, declomycin] | 32 to 48 fold |  |  |  |  |  |  |  |  |  |  |  |  |  |
| C[C@H]1c2cccc(O)c2C(=O)C2=C(O)[C@]3(O)C(=O)C(C(N)=O)=C(O)[C@@H](N(C)C)[C@@H]3[C@@H](O)[C@@H]21 [doxycycline] | 32 to 48 fold | both T1 and T2 generations showed increased resistance to PURSUIT® in the presence of doxycycline | effectively induced resistance to PURSUIT® | Both T1 and T2 lines showed doxy-mediated herbicide resistance induction | no root inhibition | responded very well to the presence of doxycycline by inducing regeneration of shoots |  |  |  |  |  |  |  |  |
| CN(C)[C@@H]1C(O)=C(C(N)=O)C(=O)[C@@]2(O)C(O)=C3C(=O)c4c(O)cccc4[C@@](C)(O)[C@H]3C[C@@H]12 [tetracycline] |  |  |  |  |  |  | Five lines showed induction of herbicide resistance | two lines showed tet induction | four lines showed the induction | induced regeneration of PURSUIT®-resistant tobacco | no induction | more than one day | several weeks | 48 h |
